Results are given in words; binding and its absence hold for the method and conditions named. Binding seen in cells or lysates may run through a third protein. Some results given as binding are weak or reduced against the parent protein; the word gives no strength.
Target: T1, endogenous CCDC28B (human (endogenous in Hek293)) (UniProt Q9BUN5)
T1 sequence: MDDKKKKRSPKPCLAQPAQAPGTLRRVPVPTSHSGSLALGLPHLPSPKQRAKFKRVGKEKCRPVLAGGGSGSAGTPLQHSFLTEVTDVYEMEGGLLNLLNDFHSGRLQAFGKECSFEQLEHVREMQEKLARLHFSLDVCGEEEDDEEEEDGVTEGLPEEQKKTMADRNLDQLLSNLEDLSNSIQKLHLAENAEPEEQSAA
Test: co-IP; non-transfected cells; endogenous CCDC28B precipitated with biotinylated anti-CCDC28B VHH on Streptavidin-Agarose; western blots for KIF5B, KLC1, α-tubulin and CCDC28B

Sequences of proteins named here, by UniProt entry; tags and fusion partners are left off.
UniProt P33176: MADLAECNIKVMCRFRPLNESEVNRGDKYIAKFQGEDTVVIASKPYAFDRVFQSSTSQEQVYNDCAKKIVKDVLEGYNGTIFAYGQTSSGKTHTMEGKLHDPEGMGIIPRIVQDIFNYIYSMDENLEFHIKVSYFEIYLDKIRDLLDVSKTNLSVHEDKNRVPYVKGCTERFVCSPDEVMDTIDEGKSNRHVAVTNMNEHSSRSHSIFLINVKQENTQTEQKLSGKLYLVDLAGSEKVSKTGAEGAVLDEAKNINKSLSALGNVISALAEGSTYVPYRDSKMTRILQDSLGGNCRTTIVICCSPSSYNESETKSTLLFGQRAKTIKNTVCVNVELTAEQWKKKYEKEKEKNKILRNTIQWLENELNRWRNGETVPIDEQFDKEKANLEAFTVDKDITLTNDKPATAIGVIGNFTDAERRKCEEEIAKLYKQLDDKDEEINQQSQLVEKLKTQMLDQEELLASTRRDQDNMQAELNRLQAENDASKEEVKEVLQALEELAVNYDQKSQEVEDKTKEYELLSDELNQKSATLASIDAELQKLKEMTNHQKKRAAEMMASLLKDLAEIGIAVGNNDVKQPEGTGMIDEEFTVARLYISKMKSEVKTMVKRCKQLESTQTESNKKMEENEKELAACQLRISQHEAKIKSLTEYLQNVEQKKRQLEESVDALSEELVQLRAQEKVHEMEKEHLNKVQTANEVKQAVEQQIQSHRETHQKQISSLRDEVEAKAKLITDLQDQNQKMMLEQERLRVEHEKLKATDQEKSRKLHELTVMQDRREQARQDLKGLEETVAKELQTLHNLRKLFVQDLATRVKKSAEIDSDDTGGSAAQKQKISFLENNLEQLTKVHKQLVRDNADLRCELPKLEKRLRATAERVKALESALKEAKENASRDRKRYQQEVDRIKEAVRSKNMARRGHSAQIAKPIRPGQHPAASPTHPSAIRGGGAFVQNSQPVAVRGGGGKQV

binding: binds
Substance: kinesin 1 heavy chain KIF5B (from UniProt P33176 1-963)
